Among the test systems are M6PRBP1 (human); MAD2L1 (human); MAEA (human); MAG (human); MAGEA4 (human); MAL2 (human); MALL (human); MAN2C1 (human); MANBA (human); MANSC1 (human); MAP3K7IP1 (human); MAP3K8 (human); MAP4 (human); MAPK11 (human); MAPK6 (human); MAPK7 (human); MAPK8IP2 (human); MAPK9 (human).
What all share (experiment): protein microarray (ProtoArray v5.0), streptavidin-Alexa Fluor 647
Holding throughout (conditions): 3'-biotin; 20 mM Tris (pH 7.5), 5 mM MgCl2, 100 mM KCl, 0.1% Tween-20, A/T-rich and random oligonucleotide blockers; temperature not stated; high values mean tight binding

In test [1] the test system is MAP kinase-activated protein kinase 3 (human).
The target in another test is T1, MAPKAPK5 (UniProt Q8IW41).
T1 sequence: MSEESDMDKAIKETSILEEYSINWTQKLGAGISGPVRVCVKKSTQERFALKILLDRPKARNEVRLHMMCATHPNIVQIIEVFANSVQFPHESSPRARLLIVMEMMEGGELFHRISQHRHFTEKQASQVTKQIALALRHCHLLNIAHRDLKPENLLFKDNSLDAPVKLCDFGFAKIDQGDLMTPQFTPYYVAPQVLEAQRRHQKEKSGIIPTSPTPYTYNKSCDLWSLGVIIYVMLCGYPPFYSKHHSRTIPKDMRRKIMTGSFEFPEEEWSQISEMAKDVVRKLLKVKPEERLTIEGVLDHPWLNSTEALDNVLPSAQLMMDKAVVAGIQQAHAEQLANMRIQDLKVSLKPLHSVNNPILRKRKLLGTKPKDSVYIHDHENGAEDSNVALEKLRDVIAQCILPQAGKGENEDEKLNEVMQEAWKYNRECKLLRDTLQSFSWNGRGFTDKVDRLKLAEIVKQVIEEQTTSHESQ

This passage reports binding signal results from paper PMC5996148.

Where “and” joins values, the source holds several entries; their conditions need not be identical. Identical values can stand only once. The list shows a part of the results. For some assays here: Construct or isoform of the protein are uncertain.

As to “GGGAGGCTGAGGCAGG [G4-1 biotinylated (PQS2)]”, the binding signal in the test on M6PRBP1 (human) was -0.278 z-score; with MAD2L1 (human), -0.278 z-score; in the test with MAEA (human), -0.33 z-score; with MAG (human), -0.331 z-score; with MAGEA4 (human) it was -0.335 z-score; in the test with MAL2 (human), -0.252 z-score. In addition, the binding signal was -0.334 z-score in the test with MALL (human); -0.331 z-score and -0.33 z-score with MAN2C1 (human); -0.259 z-score with MANBA (human); -0.338 z-score with MANSC1 (human); 6.6 z-score in test [1]; -0.32 z-score in the test with MAP3K7IP1 (human). The binding signal was -0.325 z-score in the test on MAP3K8 (human); -0.339 z-score with MAP4 (human); -0.302 z-score with MAPK11 (human); -0.347 z-score in the test with MAPK6 (human); -0.256 z-score in the test on MAPK7 (human); -0.34 z-score with MAPK8IP2 (human). The binding signal in the test with MAPK9 (human) was -0.347 z-score and -0.297 z-score; with MAPKAPK5, 6.58 z-score.
